PubChem BioAssay AID1259308 – NCATS, 2017
This is a random part of about 59,000 reagents. Over the whole deposit, about 1,510 (2.6%) got an active call. 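Calls use total luciferase alone and ignore viability, so some active siRNAs may act by altering cell number.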 The numbers tell different reagents against one gene apart. Not all columns of the deposit are shown.

- Purpose: 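Genes whose loss raises luciferase production in HEK293 cells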 (primary screen)
- System: human HEK293 embryonic kidney cells stably expressing firefly luciferase (HEK-CMV-Luc2-Hygro)
- Reagent: single siRNA against human genes, 0.8 pmol siRNA per well
- Timing: 72 h
- Measured: 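Reporter luminescence and viable-cell signal on separate replicate plates, given as percent of non-targeting control and median/MAD z-scores, plus per-cell luciferase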
- Scale: total luciferase, z-score: higher = more reporter protein produced
- Rule for the call: 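Active when the median/MAD z-score for overall luciferase is greater than 3; a gene was taken forward for validation with new siRNAs if at least two of its three siRNAs passed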
- Meaning of the calls: active = raised luciferase; inactive = no rise

total luciferase, z-score, by gene symbol and reagent
RBM45: #1 1.64 inactive; #2 -0.405 inactive; #3 1.41 inactive
ZNF175: #1 -0.422 inactive; #2 1.26 inactive; #3 0.574 inactive
ARHGEF5: #1 1.47 inactive; #2 -0.699 inactive; #3 -1.1 inactive
OR5B3: #1 2.5 inactive; #2 0.0174 inactive; #3 -0.722 inactive
LUZP4: #1 0.664 inactive; #2 0.283 inactive; #3 0.35 inactive
SLC13A2: #1 0.723 inactive; #2 0.0302 inactive; #3 -0.11 inactive
HS6ST1P1: #1 1.06 inactive; #2 -0.425 inactive; #3 0.859 inactive; #4 0.443 inactive; #5 -1.52 inactive; #6 0.507 inactive

Reformatted: results already given.
| gene symbol | reagent no. | total luciferase, z-score | Outcome |
| --- | --- | --- | --- |
| LUZP4 | 2 | 0.283 | inactive |
| LUZP4 | 3 | 0.35 | inactive |
| SLC13A2 | 1 | 0.723 | inactive |
